# Results as given in EP4635949A1 (Jiangsu NHWA Pharmaceutical Co., Ltd, priority 2022, dated 2024).
# Experiments:
# in vivo [1] = details: male, SD, rat, 30 mg/kg
# in vivo [2] = details: male, SD, rat
# [3] = male, SD, rat, in vivo, 30 mg/kg
structure (smiles),measurement,setting,value
"Cc1cc(C)nc(N2CC3CN(C(=O)c4c(F)cccc4-n4nccn4)CC3C2)n1 (stereo not drawn) [Seltorexant, reference compound]",Kp,in vivo [1],0.19
same,Cmax,"in vivo [2]; iv, 1 mg/kg",1180 ng/mL
same,Cmax,"in vivo [2]; po, 30 mg/kg",3170 ng/mL
same,bioavailability,"in vivo [2]; po, 30 mg/kg",26.8%
same,Brain,[3],516.3 ng/g
same,Plasma,[3],2760.2 ng/mL
